Reference: paper PMC11312562

Target: hexahistidyl-tagged ThsB1 (His6-ThsB1) (Staphylococcus aureus 08BA02176)
Experiment: pull-down; cobalt resin on lysates of S. aureus RN4220 expressing His6-tagged ThsB1 or ThsB2 alone, not as a pair, infected with Φ80α-vir (MOI 10) for 20 minutes; Coomassie SDS-PAGE

B1: major head protein (Mhp) of phage Φ80α-vir (protein, UniProt A4ZFB3 15-324)
chain: ASNNVKPQVFNPDNVMMHEKKDGTLMNEFTTPILQEVMENSKIMQLGKYEPMEGTEKKFTFWADKPGAYWVGEGQKIETSKATWVNATMRAFKLGVILPVTKEFLNYTYSQFFEEMKPMIAEAFYKKFDEAGILNQGNNPFGKSIAQSIEKTNKVIKGDFTQDNIIDLEALLEDDELEANAFISKTQNRSLLRKIVDPETKERIYDRNSDSLDGLPVVNLKSSNLKRGELITGDFDKLIYGIPQLIEYKIDETAQLSTVKNEDGTPVNLFEQDMVALRATMHVALHIADDKAFAKLVPADKRTDSVPGEV
binding: binds

No constants are given. Whether binding was seen depends on the method and setting. In cells and extracts the contact can be indirect. Binding can be weak; no strength is given.
